In paper PMC4627235:
Results are given in words; binding and its absence hold for the method and conditions named. In cells and extracts the contact can be indirect. Some binding calls cover weakened binding; strength is not graded here. Tags and fused reporters may be left off the sequences shown. Blank lines part the entries; values can stand above or below the molecule they belong to.

Protein sequences, listed by entry. Tags and fused reporters are not part of them.
UniProt Q14247: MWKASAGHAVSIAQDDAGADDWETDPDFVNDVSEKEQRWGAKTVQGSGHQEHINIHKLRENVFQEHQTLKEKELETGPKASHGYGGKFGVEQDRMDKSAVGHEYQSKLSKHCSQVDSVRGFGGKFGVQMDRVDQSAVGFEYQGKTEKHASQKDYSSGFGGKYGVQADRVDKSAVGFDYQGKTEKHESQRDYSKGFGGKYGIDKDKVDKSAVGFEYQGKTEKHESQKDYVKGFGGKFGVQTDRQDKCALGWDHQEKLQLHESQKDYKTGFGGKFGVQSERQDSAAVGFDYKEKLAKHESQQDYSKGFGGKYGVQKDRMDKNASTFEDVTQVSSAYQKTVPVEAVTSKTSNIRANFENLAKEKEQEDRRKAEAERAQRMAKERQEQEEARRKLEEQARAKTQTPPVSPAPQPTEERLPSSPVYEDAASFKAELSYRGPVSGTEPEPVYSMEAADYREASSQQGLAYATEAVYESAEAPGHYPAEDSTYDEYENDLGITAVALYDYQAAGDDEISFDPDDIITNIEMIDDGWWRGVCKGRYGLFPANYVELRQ

What was measured:
[1] = biological target: T1, GFP tagged wild type XB130 (human) (UniProt Q8N4X5); assay: co-IP; lysates (RIPA buffer, diluted in NET buffer) of BEAS2B cells stably expressing GFP-XB130, treated with 0.1 uM NNK up to 30 min; incubated overnight at 4°C with anti-cortactin or anti-XB130 antibody, protein G-sepharose, western blot
T1 sequence: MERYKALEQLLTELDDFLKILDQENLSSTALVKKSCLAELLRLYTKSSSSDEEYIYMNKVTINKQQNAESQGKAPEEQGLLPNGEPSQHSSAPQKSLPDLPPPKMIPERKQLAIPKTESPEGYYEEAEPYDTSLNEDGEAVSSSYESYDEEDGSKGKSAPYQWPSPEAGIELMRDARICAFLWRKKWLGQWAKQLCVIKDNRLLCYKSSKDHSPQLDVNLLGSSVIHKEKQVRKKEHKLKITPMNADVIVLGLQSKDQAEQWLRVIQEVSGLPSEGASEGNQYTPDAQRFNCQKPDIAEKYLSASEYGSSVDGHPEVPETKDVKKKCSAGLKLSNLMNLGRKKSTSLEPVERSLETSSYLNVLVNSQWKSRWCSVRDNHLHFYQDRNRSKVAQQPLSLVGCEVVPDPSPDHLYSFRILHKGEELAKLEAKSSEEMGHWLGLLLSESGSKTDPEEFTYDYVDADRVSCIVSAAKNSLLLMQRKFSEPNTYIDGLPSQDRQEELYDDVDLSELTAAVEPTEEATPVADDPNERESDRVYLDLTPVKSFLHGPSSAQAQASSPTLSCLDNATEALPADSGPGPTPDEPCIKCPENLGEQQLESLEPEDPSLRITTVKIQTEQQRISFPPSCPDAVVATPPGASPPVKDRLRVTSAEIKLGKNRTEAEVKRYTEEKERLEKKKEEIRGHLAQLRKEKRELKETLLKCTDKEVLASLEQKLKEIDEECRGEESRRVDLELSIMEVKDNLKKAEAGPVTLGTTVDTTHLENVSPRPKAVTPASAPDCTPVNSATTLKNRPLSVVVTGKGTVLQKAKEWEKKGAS

[2] = biological target: cortactin (human (endogenous in BEAS2B)) (UniProt Q14247); assay: as above

binding [1]: binds
Molecule: cortactin (from UniProt Q14247 1-550)

binding [2]: binds
B1: GFP tagged wild type XB130 (protein, UniProt Q8N4X5 1-818)
chain: T1 sequence
